System: mSWI/SNF complexes
Test: mSWI/SNF complex purification with HA-tagged baits and mass spectrometry (peptide counts)
Design: species or system human
[1] = 293_HA-BRD7 bait purification, mass spectrometry, total peptide count per identified protein
[2] = 293_HA-BRD7 bait purification, mass spectrometry, unique peptide count per identified protein

Molecule	Total [1]	Unique [2]	Total (293_HA-BRD7: HA-BRD7 bait purification, total peptide count per co-purified protein)	Unique (293_HA-BRD7: HA-BRD7 bait purification, unique peptide count per co-purified protein)	Total (293_HA-DPF2 purification, total peptides)	Unique (293_HA-DPF2 purification, unique peptides)
TRIM37 (protein, UniProt O94972 1-964, looked up) E3 ubiquitin-protein ligase …: MDEQSVESIAEVFRCFICMEKLRDARLCPHCSKLCCFSCIRRWLTEQRAQCPHCRAPLQLRELVNCRWAEEVTQQLDTLQLCSLTKHEENEKDKCENHHEKLSVFCWTCKKCICHQCALWGGMHGGHTFKPLAEIYEQHVTKVNEEVAKLRRRLMELISLVQEVERNVEAVRNAKDERVREIRNAVEMMIARLDTQLKNKLITLMGQKTSLTQETELLESLLQEVEHQLRSCSKSELISKSSEILMMFQQVHRKPMASFVTTPVPPDFTSELVPSYDSATFVLENFSTLRQRADPVYSPPLQVSGLCWRLKVYPDGNGVVRGYYLSVFLELSAGLPETSKYEYRVEMVHQSCNDPTKNIIREFASDFEVGECWGYNRFFRLDLLANEGYLNPQNDTVILRFQVRSPTFFQKSRDQHWYITQLEAAQTSYIQQINNLKERLTIELSRTQKSRDLSPPDNHLSPQNDDALETRAKKSACSDMLLEGGPTTASVREAKEDEEDEEKIQNEDYHHELSDGDLDLDLVYEDEVNQLDGSSSSASSTATSNTEENDIDEETMSGENDVEYNNMELEEGELMEDAAAAGPAGSSHGYVGSSSRISRRTHLCSAATSSLLDIDPLILIHLLDLKDRSSIENLWGLQPRPPASLLQPTASYSRKDKDQRKQQAMWRVPSDLKMLKRLKTQMAEVRCMKTDVKNTLSEIKSSSAASGDMQTSLFSADQAALAACGTENSGRLQDLGMELLAKSSVANCYIRNSTNKKSNSPKPARSSVAGSLSLRRAVDPGENSRSKGDCQTLSEGSPGSSQSGSRHSSPRALIHGSIGDILPKTEDRQCKALDSDAVVVAVFSGLPAVEKRRKMVTLGANAKGGHLEGLQMTDLENNSETGELQPVLPEGASAAPEEGMSSDSDIECDTENEEQEEHTSVGGFHDSFMVMTQPPDEDTHSSFPDGEQIGPEDLSFNTDENSGR	1	1	–	–	–	–
KRT18 (protein, UniProt P05783 2-430, looked up) Keratin, type I cytoskeletal …: SFTTRSTFSTNYRSLGSVQAPSYGARPVSSAASVYAGAGGSGSRISVSRSTSFRGGMGSGGLATGIAGGLAGMGGIQNEKETMQSLNDRLASYLDRVRSLETENRRLESKIREHLEKKGPQVRDWSHYFKIIEDLRAQIFANTVDNARIVLQIDNARLAADDFRVKYETELAMRQSVENDIHGLRKVIDDTNITRLQLETEIEALKEELLFMKKNHEEEVKGLQAQIASSGLTVEVDAPKSQDLAKIMADIRAQYDELARKNREELDKYWSQQIEESTTVVTTQSAEVGAAETTLTELRRTVQSLEIDLDSMRNLKASLENSLREVEARYALQMEQLNGILLHLESELAQTRAEGQRQAQEYEALLNIKVKLEAEIATYRRLLEDGEDFNLGDALDSSNSMQTIQKTTTRRIVDGKVVSETNDTKVLRH	1	1	–	–	–	–
FAM83G (protein, UniProt A6ND36 2-823, looked up) Protein FAM83G: AFSQVQCLDDNHVNWRSSESKPEFFYSEEQRLALEALVARGRDAFYEVLKRENIRDFLSELELKRILETIEVYDPGSEDPRGTGPSQGPEDNGVGDGEEASGADGVPIEAEPLPSLEYWPQKSDRSIPQLDLGWPDTIAYRGVTRASVYMQPPIDGQAHIKEVVRKMISQAQKVIAVVMDMFTDVDIFKDLLDAGFKRKVAVYIIVDESNVKYFLHMCERACMHLGHLKNLRVRSSGGTEFFTRSATKFKGALAQKFMFVDGDRAVCGSYSFTWSAARTDRNVISVLSGQVVEMFDRQFQELYLMSHSVSLKGIPMEKEPEPEPIVLPSVVPLVPAGTVAKKLVNPKYALVKAKSVDEIAKISSEKQEAKKPLGLKGPALAEHPGELPELLPPIHPGLLHLERANMFEYLPTWVEPDPEPGSDILGYINIIDPNIWNPQPSQMNRIKIRDTSQASAQHQLWKQSQDSRPRPEPCPPPEPSAPQDGVPAENGLPQGDPEPLPPVPKPRTVPVADVLARDSSDIGWVLELPKEEAPQNGTDHRLPRMAGPGHAPLQRQLSVTQDDPESLGVGLPNGLDGVEEEDDDDYVTLSDQDSHSGSSGRGPGPRRPSVASSVSEEYFEVREHSVPLRRRHSEQVANGPTPPPRRQLSAPHITRGTFVGPQGGSPWAQSRGREEADALKRMQAQRSTDKEAQGQQFHHHRVPASGTRDKDGFPGPPRYRSAADSVQSSTRNAGPAMAGPHHWQAKGGQVPRLLPDPGSPRLAQNARPMTDGRATEEHPSPFGIPYSKLSQSKHLKARTGGSQWASSDSKRRAQAPRDRKDP	1	1	–	–	–	–
SLC25A4 (protein, UniProt P12235 2-298, looked up) ADP/ATP translocase 1: GDHAWSFLKDFLAGGVAAAVSKTAVAPIERVKLLLQVQHASKQISAEKQYKGIIDCVVRIPKEQGFLSFWRGNLANVIRYFPTQALNFAFKDKYKQLFLGGVDRHKQFWRYFAGNLASGGAAGATSLCFVYPLDFARTRLAADVGKGAAQREFHGLGDCIIKIFKSDGLRGLYQGFNVSVQGIIIYRAAYFGVYDTAKGMLPDPKNVHIFVSWMIAQSVTAVAGLVSYPFDTVRRRMMMQSGRKGADIMYTGTVDCWRKIAKDEGAKAFFKGAWSNVLRGMGGAFVLVLYDEIKKYV	–	–	16	11	1	1
UBA1 (protein, UniProt P22314 2-1058, looked up) Ubiquitin-like …: SSSPLSKKRRVSGPDPKPGSNCSPAQSVLSEVPSVPTNGMAKNGSEADIDEGLYSRQLYVLGHEAMKRLQTSSVLVSGLRGLGVEIAKNIILGGVKAVTLHDQGTAQWADLSSQFYLREEDIGKNRAEVSQPRLAELNSYVPVTAYTGPLVEDFLSGFQVVVLTNTPLEDQLRVGEFCHNRGIKLVVADTRGLFGQLFCDFGEEMILTDSNGEQPLSAMVSMVTKDNPGVVTCLDEARHGFESGDFVSFSEVQGMVELNGNQPMEIKVLGPYTFSICDTSNFSDYIRGGIVSQVKVPKKISFKSLVASLAEPDFVVTDFAKFSRPAQLHIGFQALHQFCAQHGRPPRPRNEEDAAELVALAQAVNARALPAVQQNNLDEDLIRKLAYVAAGDLAPINAFIGGLAAQEVMKACSGKFMPIMQWLYFDALECLPEDKEVLTEDKCLQRQNRYDGQVAVFGSDLQEKLGKQKYFLVGAGAIGCELLKNFAMIGLGCGEGGEIIVTDMDTIEKSNLNRQFLFRPWDVTKLKSDTAAAAVRQMNPHIRVTSHQNRVGPDTERIYDDDFFQNLDGVANALDNVDARMYMDRRCVYYRKPLLESGTLGTKGNVQVVIPFLTESYSSSQDPPEKSIPICTLKNFPNAIEHTLQWARDEFEGLFKQPAENVNQYLTDPKFVERTLRLAGTQPLEVLEAVQRSLVLQRPQTWADCVTWACHHWHTQYSNNIRQLLHNFPPDQLTSSGAPFWSGPKRCPHPLTFDVNNPLHLDYVMAAANLFAQTYGLTGSQDRAAVATFLQSVQVPEFTPKSGVKIHVSDQELQSANASVDDSRLEELKATLPSPDKLPGFKMYPIDFEKDDDSNFHMDFIVAASNLRAENYDIPSADRHKSKLIAGKIIPAIATTTAAVVGLVCLELYKVVQGHRQLDSYKNGFLNLALPFFGFSEPLAAPRHQYYNQEWTLWDRFEVQGLQPNGEEMTLKQFLDYFKTEHKLEITMLSQGVSMLYSFFMPAAKLKERLDQPMTEIVSRVSKRKLGRHVRALVLELCCNDESGEDVEVPYVRYTIR	1	1	–	–	–	–
##NT5DC2 (protein, UniProt Q9H857 1-520, looked up) 5'-nucleotidase …: MRVESGSAQERGILLESLSTLLEKTTASHEGRAPGNRELTDLLPPEVCSLLNPAAIYANNEISLRDVEVYGFDYDYTLAQYADALHPEIFSTARDILIEHYKYPEGIRKYDYNPSFAIRGLHYDIQKSLLMKIDAFHYVQLGTAYRGLQPVPDEEVIELYGGTQHIPLYQMSGFYGKGPSIKQFMDIFSLPEMALLSCVVDYFLGHSLEFDQAHLYKDVTDAIRDVHVKGLMYQWIEQDMEKYILRGDETFAVLSRLVAHGKQLFLITNSPFSFVDKGMRHMVGPDWRQLFDVVIVQADKPSFFTDRRKPFRKLDEKGSLQWDRITRLEKGKIYRQGNLFDFLRLTEWRGPRVLYFGDHLYSDLADLMLRHGWRTGAIIPELEREIRIINTEQYMHSLTWQQALTGLLERMQTYQDAESRQVLAAWMKERQELRCITKALFNAQFGSIFRTFHNPTYFSRRLVRFSDLYMASLSCLLNYRVDFTFYPRRTPLQHEAPLWMDQLCTGCMKTPFLGDMAHIR	1	1	–	–	–	–

— patent US12729225B2, “Non-canonical SWI/SNF complex and uses thereof” (Dana-Farber Cancer Institute, Inc., priority 2018, dated 2026)
